Source: PubChem BioAssay AID1671195 (Yale University, 2021)

Assay: 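Knockdowns that increase or decrease uptake of fluorescent LDL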 (primary screen)
Cells: human Huh7 hepatoma cells
Knock-down reagent: siRNA pool against human genes, 18 nM
Time to read-out: about 2 to 2.5 days of knockdown, then 8 h LDL uptake
Challenge: DiI-labelled LDL at 30 µg/ml for 8 h, in lipoprotein-deficient serum medium
Measurement: 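Per-cell DiI-LDL intensity by automated imaging; well means scaled to the plate median and given as a robust z-score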
Scale: robust z-score: higher = more LDL uptake after knockdown
Active means: 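a gene counts as active if at least two replicate z-scores exceed ±2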
The whole screen tested about 22,000 reagents; below is a part drawn at random. About 1,510 of them (6.9%) were called active. 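Active includes knockdowns raising or lowering LDL uptake; positive z-scores mean more uptake, negative mean less.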

Which result is listed for IGHV1OR15-1?
robust z-score, replicate 1: 2.23; robust z-score, replicate 2: 1.65; robust z-score, replicate 3: 2.58; outcome: active

How did the screen score CCDC191?
robust z-score, replicate 1: 0.521; robust z-score, replicate 2: -0.529; robust z-score, replicate 3: 2.76; outcome: inactive

With ARID5B, what was measured?
robust z-score, replicate 1: 0.636; robust z-score, replicate 2: 0.262; robust z-score, replicate 3: 0.698; outcome: inactive

What did the screen give for LINC00548?
robust z-score, replicate 1: -0.457; robust z-score, replicate 2: -0.0728; robust z-score, replicate 3: -0.492; outcome: inactive

What did the screen give for OR2A2?
robust z-score, replicate 1: 0.416; robust z-score, replicate 2: 0.121; robust z-score, replicate 3: 0.0139; outcome: inactive

For BEND4, what does the deposit list?
robust z-score, replicate 1: 1.91; robust z-score, replicate 2: 1.5; robust z-score, replicate 3: 1.29; outcome: inactive

For FAM178B, what was measured?
robust z-score, replicate 1: 1.36; robust z-score, replicate 2: 2.47; robust z-score, replicate 3: -1.05; outcome: inactive

With SESN1, how do the results read?
robust z-score, replicate 1: 1.09; robust z-score, replicate 2: -1; robust z-score, replicate 3: 1.49; outcome: inactive

Which result is listed for UNQ5810 (retired record)?
robust z-score, replicate 1: 0.0414; robust z-score, replicate 2: -0.638; robust z-score, replicate 3: -0.416; outcome: inactive

With VPS33B, how do the results read?
robust z-score, replicate 1: -1.23; robust z-score, replicate 2: -1.29; robust z-score, replicate 3: -0.221; outcome: inactive

What is on record for LTC4S?
robust z-score, replicate 1: 1.29; robust z-score, replicate 2: -0.644; robust z-score, replicate 3: -0.141; outcome: inactive

Which result is listed for IFT22?
robust z-score, replicate 1: -2.24; robust z-score, replicate 2: -2.47; robust z-score, replicate 3: -2.55; outcome: active

How did the screen score AAR2?
robust z-score, replicate 1: 1.18; robust z-score, replicate 2: 0.117; robust z-score, replicate 3: -0.671; outcome: inactive

What is on record for LINC00471?
robust z-score, replicate 1: 1.22; robust z-score, replicate 2: 0.631; robust z-score, replicate 3: 0.467; outcome: inactive

With HNRNPCL1, how do the results read?
robust z-score, replicate 1: -0.539; robust z-score, replicate 2: -0.678; robust z-score, replicate 3: -1.51; outcome: inactive

How did the screen score OSR2?
robust z-score, replicate 1: -0.935; robust z-score, replicate 2: -0.078; robust z-score, replicate 3: -0.47; outcome: inactive

For BCL7B, what does the deposit list?
robust z-score, replicate 1: -0.512; robust z-score, replicate 2: -0.812; robust z-score, replicate 3: 0.132; outcome: inactive

How did the screen score LCORL?
robust z-score, replicate 1: 2.64; robust z-score, replicate 2: 3.1; robust z-score, replicate 3: 2.29; outcome: active

How did the screen score DNMT1?
robust z-score, replicate 1: -0.0594; robust z-score, replicate 2: 2.12; robust z-score, replicate 3: 0.029; outcome: inactive

Which result is listed for FGFR1?
robust z-score, replicate 1: 0.353; robust z-score, replicate 2: 0.88; robust z-score, replicate 3: -0.31; outcome: inactive

How did the screen score LOC339065 (retired record)?
robust z-score, replicate 1: -0.385; robust z-score, replicate 2: -0.479; robust z-score, replicate 3: -0.707; outcome: inactive

For BUB1, what was measured?
robust z-score, replicate 1: -0.333; robust z-score, replicate 2: -1.07; robust z-score, replicate 3: -0.421; outcome: inactive

For ZNF711, what does the deposit list?
robust z-score, replicate 1: -1.25; robust z-score, replicate 2: -0.827; robust z-score, replicate 3: -0.645; outcome: inactive

Which result is listed for IGLJCOR18?
robust z-score, replicate 1: -0.559; robust z-score, replicate 2: -0.178; robust z-score, replicate 3: -0.365; outcome: inactive

For FLRT1, what does the deposit list?
robust z-score, replicate 1: 1.47; robust z-score, replicate 2: 0.147; robust z-score, replicate 3: 0.643; outcome: inactive

For LOC390250, what was measured?
robust z-score, replicate 1: 0.0325; robust z-score, replicate 2: -0.358; robust z-score, replicate 3: -0.11; outcome: inactive

What is on record for MAPK1IP1L?
robust z-score, replicate 1: 0.174; robust z-score, replicate 2: 0.204; robust z-score, replicate 3: -0.153; outcome: inactive

With GRAMD1A, what does the deposit list?
robust z-score, replicate 1: 0.471; robust z-score, replicate 2: -0.629; robust z-score, replicate 3: -0.202; outcome: inactive

For WDR35, how do the results read?
robust z-score, replicate 1: 0.168; robust z-score, replicate 2: 0.887; robust z-score, replicate 3: -0.304; outcome: inactive

How did the screen score NXF2?
robust z-score, replicate 1: -0.861; robust z-score, replicate 2: -1.23; robust z-score, replicate 3: -1.4; outcome: inactive

Reagents listed so far called active, once more:
IGHV1OR15-1 → robust z-score, replicate 1: 2.23; robust z-score, replicate 2: 1.65; robust z-score, replicate 3: 2.58; outcome: active
IFT22 → robust z-score, replicate 1: -2.24; robust z-score, replicate 2: -2.47; robust z-score, replicate 3: -2.55; outcome: active
LCORL → robust z-score, replicate 1: 2.64; robust z-score, replicate 2: 3.1; robust z-score, replicate 3: 2.29; outcome: active
